Assay results published in publication PMC5309696.
No constants are given. Whether binding was seen depends on the method and setting. Binding seen in cells or lysates may run through a third protein. Some entries that bind do so weakly or less than the wild type.

Sequences of proteins named here, by UniProt entry; tags and fusion partners are left off.
UniProt O08586: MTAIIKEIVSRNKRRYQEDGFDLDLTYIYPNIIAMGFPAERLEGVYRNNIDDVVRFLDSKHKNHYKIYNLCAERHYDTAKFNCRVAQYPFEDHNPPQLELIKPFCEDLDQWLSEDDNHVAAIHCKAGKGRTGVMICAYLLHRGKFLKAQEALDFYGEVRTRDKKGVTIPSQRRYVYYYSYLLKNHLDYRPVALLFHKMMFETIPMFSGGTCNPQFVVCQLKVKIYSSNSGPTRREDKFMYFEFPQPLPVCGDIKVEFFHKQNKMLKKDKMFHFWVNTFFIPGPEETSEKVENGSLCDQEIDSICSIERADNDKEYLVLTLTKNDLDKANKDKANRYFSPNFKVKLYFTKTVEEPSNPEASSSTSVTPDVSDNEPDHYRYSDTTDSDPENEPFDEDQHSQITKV

Target: T1, DJ-1 (endogenous, brown adipose tissue) (mouse (endogenous in BAT)) (UniProt Q99LX0)
T1 sequence: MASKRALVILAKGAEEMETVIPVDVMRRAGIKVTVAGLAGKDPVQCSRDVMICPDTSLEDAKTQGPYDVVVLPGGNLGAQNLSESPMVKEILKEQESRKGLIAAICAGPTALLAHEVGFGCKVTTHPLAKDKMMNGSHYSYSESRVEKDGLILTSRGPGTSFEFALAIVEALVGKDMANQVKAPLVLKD
Assay: co-IP; lysates of BAT immunoprecipitated with DJ-1 antibody, immunoblotted with PTEN or Mib2 antibody; IP buffer 50 mM Hepes pH 7.9, 150 mM NaCl, 1% Triton-100, 4 °C

- binding: binds
Substance: PTEN (endogenous) (from UniProt O08586 1-403)
